# Several values for one entry are separate records, joined by “and”; a condition that tells them apart may be missing. Identical values can stand only once. Out of some 260,000 compounds screened, about 1,500 (0.58%) were called active. Inconclusive means that the source gave no clear call. Such entries were picked first, then a sample of the others.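 Rule for the calls: active = inhibition above a set limit at one or more doses, reproduced on every date tested; inconclusive = results disagree between test dates, or hit never tested in dose response; inactive = the rest.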
# Amino acid sequences for entries named in this document (tags omitted). A change or cut given only in a name is not applied to a line headed by its entry.
# UniProt P69720: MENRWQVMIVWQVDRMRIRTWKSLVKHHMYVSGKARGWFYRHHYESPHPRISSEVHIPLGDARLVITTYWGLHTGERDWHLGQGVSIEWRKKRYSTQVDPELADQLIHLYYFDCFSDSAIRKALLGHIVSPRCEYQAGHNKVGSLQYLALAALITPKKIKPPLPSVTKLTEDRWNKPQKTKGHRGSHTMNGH
# UniProt P69721: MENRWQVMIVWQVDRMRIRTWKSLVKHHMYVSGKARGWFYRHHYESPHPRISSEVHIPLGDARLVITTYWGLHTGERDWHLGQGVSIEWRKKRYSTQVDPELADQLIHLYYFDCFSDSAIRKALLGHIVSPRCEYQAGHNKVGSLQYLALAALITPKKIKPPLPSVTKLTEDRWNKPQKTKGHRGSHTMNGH
# UniProt P69722: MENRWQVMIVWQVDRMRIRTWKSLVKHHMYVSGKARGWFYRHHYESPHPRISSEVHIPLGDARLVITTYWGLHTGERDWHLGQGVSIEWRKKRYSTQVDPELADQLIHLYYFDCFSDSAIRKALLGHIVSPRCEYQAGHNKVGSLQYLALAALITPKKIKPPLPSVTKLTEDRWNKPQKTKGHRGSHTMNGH
# UniProt P69723: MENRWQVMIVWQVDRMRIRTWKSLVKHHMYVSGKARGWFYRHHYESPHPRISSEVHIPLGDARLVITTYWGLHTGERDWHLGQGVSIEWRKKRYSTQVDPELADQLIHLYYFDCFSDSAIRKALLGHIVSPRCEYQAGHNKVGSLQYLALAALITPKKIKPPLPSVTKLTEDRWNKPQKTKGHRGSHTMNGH
# UniProt Q9HC16: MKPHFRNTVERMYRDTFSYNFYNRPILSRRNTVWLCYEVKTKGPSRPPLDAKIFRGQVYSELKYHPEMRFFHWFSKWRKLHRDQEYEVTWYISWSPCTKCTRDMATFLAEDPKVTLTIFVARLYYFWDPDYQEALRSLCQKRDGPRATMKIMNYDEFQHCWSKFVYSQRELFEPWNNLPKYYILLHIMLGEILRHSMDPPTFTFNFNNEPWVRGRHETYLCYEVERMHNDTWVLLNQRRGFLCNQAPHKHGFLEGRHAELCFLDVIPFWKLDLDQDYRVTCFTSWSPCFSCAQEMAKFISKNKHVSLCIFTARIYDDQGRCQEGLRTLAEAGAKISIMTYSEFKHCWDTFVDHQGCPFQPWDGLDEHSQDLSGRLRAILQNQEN
# Target: Virion infectivity factor (Human immunodeficiency virus type 1 group M subtype B (isolate BH10)) + Virion infectivity factor (Human immunodeficiency virus type 1 group M subtype B (isolate BRU/LAI)) + Virion infectivity factor (Human immunodeficiency virus type 1 group M subtype B (isolate PCV12)) + Virion infectivity factor (Human immunodeficiency virus type 1 group M subtype B (isolate HXB2)) + DNA dC->dU-editing enzyme APOBEC-3G (Homo sapiens) (UniProt P69720+P69721+P69722+P69723+Q9HC16)
# Assay: inhibitors of Vif binding to APOBEC3G peptide, primary screen, biochemical, TR-FRET, GST-Vif 1-94, biotin-A3G peptide, dose response retest (AID 1117319);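 note: Vif residues 1-94 fused to GST binding biotinylated APOBEC3G peptide 110-148; 0% = full assay without inhibitor and 100% = GST in place of GST-Vif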
# Details: hits give high values
row,SMILES,inhibition
1,COc1cc(OC)c(NC(=O)c2ccc3c(SCC(=O)O)c4c(nc3c2)CCCC4)cc1Cl,inconclusive: 43.5%
2,O=C(Nc1ccsc1C(=O)N1CCCC1)c1ccccc1,inactive: -3.04%
3,CCc1ccc2[nH]c(=O)c(C(c3nnnn3CCOC)N3CCN(c4ccccc4)CC3)cc2c1 (stereo not given),inactive: 9.41% and inactive: 22.6%
4,CC1(C)CC(=O)C/C(=N/NC(=O)c2ccc(-c3ccccc3)cc2)C1,inconclusive: 36%
5,O=C(COc1ccccc1)NCC(=O)N/N=C/c1ccc(O)cc1O,inconclusive: 35.7%
6,O=C(Nc1cccc([N+](=O)[O-])c1)c1ccc(-c2ccccc2)cc1,inconclusive: 39.9%
7,O=c1c2ccccc2nc2n1CCCCN2,inconclusive: 42.8%
8,COc1ccc(Cc2nn3c(Cn4nnc5ccccc54)nnc3s2)cc1,inconclusive: 53.3%
9,N[C@@H](Cc1cc(I)c(Oc2ccc(O)c(I)c2)c(I)c1)C(=O)O,inconclusive: 38.4%
10,CC(C(=O)c1ccc(-c2ccccc2)cc1)[n+]1ccccc1 (stereo not given),inconclusive: 59%
11,O=C(N/N=C/c1cccc(F)c1)c1cc(-c2ccco2)nc2ccccc12,inconclusive: 41.5%
12,COc1cc2cc3c(N)c(C(=O)Nc4sc(C)c(C)c4C#N)sc3nc2cc1OC,inconclusive: 63%
13,CC(=O)Nc1cccc(C(=O)Nc2cccnc2)c1,inconclusive: 63%
14,Cc1ccc(NC2=Nc3ccccc3N3C2=Nc2c(c(C)nn2-c2ccccc2)C3c2ccc(O)c(O)c2)cc1 (stereo not given),inconclusive: 34.4%
15,O=C(NC(=S)Nc1ccc2oc(=O)ccc2c1)c1ccc(-c2cccc(Cl)c2Cl)o1,inconclusive: 38.8%
16,O=C(Nc1ccc(Cc2ccncc2)cc1)c1ccc(Cl)c([N+](=O)[O-])c1,inconclusive: 3.76%
17,COc1ccc(NS(=O)(=O)c2ccc(N3CCOCC3)c(NC(=O)c3cccc(F)c3)c2)cc1,inconclusive: 33.3%
18,CCC(C)OC(=O)n1ccc(C(=O)Nc2nccs2)n1 (stereo not given),inconclusive: 40.9%
19,CC1=CCC2C(=O)N(c3nc4ccccc4n3C)C(=O)C2C1 (stereo not given),inactive: 24.7%
20,COc1ccc2ccccc2c1CNC(=O)CC1C(=O)NCCN1CC(C)(C)C (stereo not given),inconclusive: 36.8%
21,COCCn1nnnc1C(C(C)C)N1CCC(Cc2ccccc2)CC1 (stereo not given),inconclusive: 41%
22,CCCCOc1ccccc1C1NC(=O)NC(C)=C1C(=O)OCCOCC (stereo not given),inactive: 2%
23,Cc1ccc(CNc2ccc(N3CCOCC3)cc2)cc1,inconclusive: 58.2%

row,SMILES,inhibition
1,Cc1cc(=O)[nH]c(N/N=C/C2=C(N3CCOCC3)C(=C\c3ccc(Cl)cc3)/CC2)n1,inconclusive: 44.4%
2,COCCN1Cc2cccc(C(=O)Nc3cc(C)cc(C)c3)c2C1=O,inconclusive: 49.3%
3,CN(C)S(=O)(=O)c1ccccc1C#N,inconclusive: 35.6%
4,CC(C)(C)C1CCc2onc(C(=O)Nc3ccc(F)cc3F)c2C1 (stereo not given),inactive: 2.83%
5,COc1cccc(C(=O)N[C@@H](CCSC)c2nc3ccccc3[nH]2)c1,inactive: 5.58%
6,O=C(Nc1cnn(Cc2ccc(Cl)cc2Cl)c1)c1noc2c1CCCC2,inconclusive: 62.3%
7,CCn1c(SCC(=O)Nc2ccc3c(c2)c2ccccc2n3CC)nnc1-c1cnccn1,inconclusive: 45%
8,O=C(/C=C/c1ccc(Cl)c(Cl)c1)N1CCc2ccccc21,inconclusive: 44.3%
9,CCOC(=O)CSc1nnc(-c2cccc(Cl)c2)n1CC,inconclusive: 40.3%
10,CCCCN(Cc1ccccc1)C(=O)c1cnc2n(c1=O)CCS2,inconclusive: 38.4%
11,COc1ccccc1OCC(=O)Nc1ccccc1C(=O)N1CCCCC1,inconclusive: 59.4%
12,Cc1ccnc(N2C(=O)c3ccccc3C2Nc2ccccc2Cl)c1 (stereo not given),inconclusive: 58.4%
13,Cc1nc(N2CCOCC2)c2c3c(sc2n1)CCC3,inactive: -7.05%
14,COc1ccccc1NC(=O)/C=C/c1ccc2c(c1)OCO2,inconclusive: 34.2%
15,CCCn1cc(S(=O)(=O)c2ccccc2)c(=O)c2cc(OCC)ccc21,inconclusive: 38.9%
16,O=C(CN1CCOCC1)OCCCc1ccccc1,inconclusive: 38.3%
17,COc1ccc(N2CC(C(=O)NCCCN3CCOCC3)CC2=O)cc1 (stereo not given),inconclusive: 62.8%
18,O=C(N/N=C/c1ccc(-c2ccc(S(=O)(=O)Nc3ncccn3)cc2)o1)c1cc2ccccc2cc1O,inconclusive: 44.1%
19,O=c1c2c3c(sc2nc2n1CCCCC2)CCCCC3,inactive: 0.94%
20,COc1ccc(OC)c(S(=O)(=O)Nc2ccccc2SC)c1,inconclusive: 36.3%
21,CCN(CC)S(=O)(=O)c1ccc2oc(C(=O)O)c(C)c2c1,inconclusive: 2.15%
22,COc1ccc(CN2CCNC(=O)C2CC(=O)N(C)Cc2ccon2)cc1OC (stereo not given),inconclusive: 48.8%
